In assay [1] the target is FcγRⅢ (R&D system, 1257-Fc). The experiment in a line: Octet BLI, receptor on anti-penta-His sensor, antibody 100 nM as analyte.
Assay [2] addresses FcγRⅡ (R&D system, 1597-CF). The description is as above.

This is an account of results in KR20220001106A.

No constants are given. Whether binding was seen depends on the method and setting. Binding can be weak; no strength is given.

B1: Hz2-F (antibody with SEQ ID NO 32 and SEQ ID NO 31) (antibody, human IgG1, L234A L235A, V domains shown)
VH: EVQLVESGGGLVQPGGSLRLSCAVSGIDLNRYSLTWIRQAPGKGLEWVAIVGGSGVTYYANWAKGRFTISRDDSKNTLYLQMNSLRAEDTAVYYCARGSDRSAYAPDIWGQGTLVTVSS
VL: DIQLTQSPSSLSASVGDRVTITCQSSQSIYSNNYLAWYQQKPGKAPKLLLYQASKLASGVPSRFSGSGSGTDFTLTISSLQPEDFATYYCLGVYDDDADNAFGQGTKVEIKR
For the molecule B1, the binding entry in assay [1] and in assay [2] was “binds” each time.
